# PMC10340168
# The chains behind the UniProt entries cited, without tags or fusion partners.
# UniProt P16054: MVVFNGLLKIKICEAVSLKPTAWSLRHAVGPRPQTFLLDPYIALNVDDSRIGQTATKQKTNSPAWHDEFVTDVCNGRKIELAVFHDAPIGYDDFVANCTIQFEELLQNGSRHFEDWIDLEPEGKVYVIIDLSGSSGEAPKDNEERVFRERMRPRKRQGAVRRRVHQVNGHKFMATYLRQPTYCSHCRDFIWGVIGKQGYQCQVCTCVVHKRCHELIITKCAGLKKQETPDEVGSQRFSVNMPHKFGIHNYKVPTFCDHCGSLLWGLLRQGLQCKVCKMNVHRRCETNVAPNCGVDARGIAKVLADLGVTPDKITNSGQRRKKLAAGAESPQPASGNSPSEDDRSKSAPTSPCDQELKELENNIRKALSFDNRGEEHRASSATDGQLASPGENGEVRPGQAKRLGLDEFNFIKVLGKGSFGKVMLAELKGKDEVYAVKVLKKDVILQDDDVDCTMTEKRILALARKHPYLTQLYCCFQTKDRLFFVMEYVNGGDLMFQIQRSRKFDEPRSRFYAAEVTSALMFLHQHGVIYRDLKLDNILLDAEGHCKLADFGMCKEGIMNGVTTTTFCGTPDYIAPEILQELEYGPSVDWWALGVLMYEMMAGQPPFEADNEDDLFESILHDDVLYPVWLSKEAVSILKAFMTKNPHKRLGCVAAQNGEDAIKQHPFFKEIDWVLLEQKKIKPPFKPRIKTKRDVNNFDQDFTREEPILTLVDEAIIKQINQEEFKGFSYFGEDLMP
# These are yes or no findings as the source states them, for the method shown. In cells and extracts the contact can be indirect. Some results given as binding are weak or reduced against the parent protein; the word gives no strength.
# T1: Nrf2 (mouse (endogenous in C2C12)) (UniProt Q60795)
# T1 sequence: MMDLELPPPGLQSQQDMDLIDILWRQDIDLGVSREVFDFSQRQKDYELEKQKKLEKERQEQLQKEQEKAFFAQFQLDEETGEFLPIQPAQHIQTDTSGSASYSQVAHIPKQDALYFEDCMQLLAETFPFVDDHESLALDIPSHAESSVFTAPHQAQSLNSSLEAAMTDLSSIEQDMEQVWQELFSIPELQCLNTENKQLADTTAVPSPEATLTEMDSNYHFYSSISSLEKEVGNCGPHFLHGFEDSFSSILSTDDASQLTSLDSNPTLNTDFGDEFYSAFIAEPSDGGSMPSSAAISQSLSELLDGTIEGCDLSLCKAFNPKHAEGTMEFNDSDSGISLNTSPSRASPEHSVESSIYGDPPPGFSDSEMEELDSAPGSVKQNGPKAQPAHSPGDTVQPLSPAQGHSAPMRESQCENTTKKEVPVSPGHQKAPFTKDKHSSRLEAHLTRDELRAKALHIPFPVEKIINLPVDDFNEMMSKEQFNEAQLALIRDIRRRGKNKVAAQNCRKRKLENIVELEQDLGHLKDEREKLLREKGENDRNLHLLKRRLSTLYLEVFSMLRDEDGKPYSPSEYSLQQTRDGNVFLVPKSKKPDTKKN
# Assays:
# [1] = target: T1, Nrf2 (mouse (endogenous in C2C12)); assay: co-IP; 5 x 10^6 C2C12 cells lysed in RIPA buffer, pre-cleared, incubated with anti-PKCe or anti-Nrf2 antibody (5 ug/mL) overnight at 4 °C; Protein A/G PLUS-Agarose beads 1 h at 4 °C; SDS-PAGE and Western blot for PKCe and Nrf2; rabbit anti-human IgG as negative control
# [2] = target: Protein kinase C epsilon (mouse (endogenous in C2C12)) (UniProt P16054); assay: as above
Molecule,binding [1],binding [2]
Protein kinase C epsilon (from UniProt P16054 1-737) (enzyme),binds,
"Nrf2 (protein, UniProt Q60795 1-597) MMDLELPPPGLQSQQDMDLIDILWRQDIDLGVSREVFDFSQRQKDYELEKQKKLEKERQEQLQKEQEKAFFAQFQLDEETGEFLPIQPAQHIQTDTSGSASYSQVAHIPKQDALYFEDCMQLLAETFPFVDDHESLALDIPSHAESSVFTAPHQAQSLNSSLEAAMTDLSSIEQDMEQVWQELFSIPELQCLNTENKQLADTTAVPSPEATLTEMDSNYHFYSSISSLEKEVGNCGPHFLHGFEDSFSSILSTDDASQLTSLDSNPTLNTDFGDEFYSAFIAEPSDGGSMPSSAAISQSLSELLDGTIEGCDLSLCKAFNPKHAEGTMEFNDSDSGISLNTSPSRASPEHSVESSIYGDPPPGFSDSEMEELDSAPGSVKQNGPKAQPAHSPGDTVQPLSPAQGHSAPMRESQCENTTKKEVPVSPGHQKAPFTKDKHSSRLEAHLTRDELRAKALHIPFPVEKIINLPVDDFNEMMSKEQFNEAQLALIRDIRRRGKNKVAAQNCRKRKLENIVELEQDLGHLKDEREKLLREKGENDRNLHLLKRRLSTLYLEVFSMLRDEDGKPYSPSEYSLQQTRDGNVFLVPKSKKPDTKKN",,binds
